Assay results reported in paper PMC10514202.
These are yes or no findings as the source states them, for the method shown. Binding seen in cells or lysates may run through a third protein. Some results given as binding are weak or reduced against the parent protein; the word gives no strength. Where a sequence is shown, tags or fusion partners need not be part of it.

How the values were obtained:
[1] = target: T1, TNFR-Wengen, Flag-tagged (TNFR-wgn-Flag) (Drosophila melanogaster) (UniProt Q9VWS4); assay: proximity ligation; in situ PLA (Duolink In Situ Red, Mouse/Rabbit) on fixed tracheal dorsal trunks of L3 larvae btlGal4>btl-GFP; wgn-flag, primary antibodies against GFP and FLAG; PLA spots counted per 400 μm^2 region
T1 sequence: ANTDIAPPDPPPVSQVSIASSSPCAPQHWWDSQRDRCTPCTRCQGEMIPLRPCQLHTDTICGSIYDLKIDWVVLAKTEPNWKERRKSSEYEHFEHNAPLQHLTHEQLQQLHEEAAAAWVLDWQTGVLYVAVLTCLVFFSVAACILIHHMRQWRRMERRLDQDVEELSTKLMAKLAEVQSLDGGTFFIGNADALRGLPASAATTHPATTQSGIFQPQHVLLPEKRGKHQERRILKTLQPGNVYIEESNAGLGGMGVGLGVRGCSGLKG

[2] = target: T1, TNFR-Wengen, Flag-tagged (TNFR-wgn-Flag) (Drosophila melanogaster); assay: co-IP; extracts of third-instar larval salivary glands co-expressing TNFR-wgn-Flag and FGFR-btl-GFP or FGFR-λbtl, lysed in RIPA buffer (50 mM Tris-HCl pH8, 150 mM NaCl, 0.1% SDS, 0.5% sodium deoxycholate, 1% Triton X-100); immunoprecipitated with αFlag or control αAbd-B, Protein G Dynabeads, washed with RIPA; Western blot with αBtl and αFlag

B1: FGFR-Breathless, GFP-tagged (FGFR-btl-GFP) (receptor, UniProt Q09147 20-1052)
chain: DLGCDYGHHRCYIDVTVENSPRQRHLLSDMDITLQCVRPMAKWFYEDKFQLRATLLRLERAQSGNSGNYGCLDSQNRWYNISLVVGHKEPVGNDIASFVKLEDAPALPESDLFFQPLNESRSLKLLQPLPKTVQRTAGGLFQLNCSPMDPDAKGVNISWLHNDTQILGGRGRIKLKRWSLTVGQLQPEDAGSYHCELCVEQDCQRSNPTQLEVISRKHTVPMLKPGYPRNTSIALGDNVSIECLLEDSALEPKITWLHKGNADNIDDLLQRLREQSQLPVDVTRLITRMDEPQVLRLGNVLMEDGGWYICIAENQVGRTVAASYVDLYSPSDTTTVRTTTTTTVASPIPTASTGEDNDDDVENPAAEASGGVGPPVFRKELKRLQHSLSGNTVNLACPVYGKANITWTKDKKPLNRELGVYVQKNWTLRFVEATSEDSGLYNCKVCNAWGCIQFDFSVQINDRTRSAPIIVVPQNQTVKVNGSLVMKCTVYSDLHPTVSWKRVVLKNASLDGLKSVEIQNLNFTVTNDSVVLTLRNVTFDQEGWYTCLASSGLGRSNSSVYLRVVSPLPPLEIYALLHAHPLGFTLAAITIVALFLLGSAFITFMLRRLRREKLLKLRIETVHQWTKKVIIYRPGGEEGSGCSSGDLQMPVIRIEKQRTTVSTTGTGGTDPAQGFNEYEFPLDSNWEIPRQQLSLGSILGEGAFGRVVMAEAEGLPRSPQLAETIVAVKMVKEEHTDTDMASLVREMEVMKMIGKHINIINLLGCCSQGGPLWVIVEYAPHGNLKDFLKQNRPGAPQRRSDSDGYLDDKPLISTQHLGEKELTKFAFQIARGMEYLASRRCIHRDLAARNVLVSDGYVMKIADFGLARDIQDTEYYRKNTNGRLPIKWMAPESLQEKKYDSQSDVWSYGVLLWEIMTYGDQPYPHILSAEELYSYLITGQRMEKPAKCSLNIYVVMRQCWHFESCARPTFAELVESFDGILQQASSNPNDAYLDLSMPMLETPPSSGDEDDGSDTETFRETSPLRYQYTYKFN
[1]
  binding: binds
[2]
  binding: binds
